No constants are given. Whether binding was seen depends on the method and setting. In cells and extracts the contact can be indirect. Some results given as binding are weak or reduced against the parent protein; the word gives no strength.
Target: adaptor protein p11 (S100A10) (mouse (endogenous in adult CD1 mouse brain)) (UniProt P08207)
Test: co-IP; anti-p11 antibody (10 ug, R&D systems) on Pierce co-immunoprecipitation resin; adult mouse (CD1) brain homogenate in 50 mM Tris, 150 mM NaCl, 1 mM EDTA, 1% NP40, 5% glycerol, pH 7.4, overnight at 4 °C; two elutions (E1, E2) immunoblotted for p11 and TASK1; anti-sheep IgG as control

Protein sequences, listed by entry. Tags and fused reporters are not part of them.
UniProt P08207: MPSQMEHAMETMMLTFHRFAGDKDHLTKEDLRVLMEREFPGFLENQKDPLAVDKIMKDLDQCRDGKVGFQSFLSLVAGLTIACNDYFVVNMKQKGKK
UniProt O35111: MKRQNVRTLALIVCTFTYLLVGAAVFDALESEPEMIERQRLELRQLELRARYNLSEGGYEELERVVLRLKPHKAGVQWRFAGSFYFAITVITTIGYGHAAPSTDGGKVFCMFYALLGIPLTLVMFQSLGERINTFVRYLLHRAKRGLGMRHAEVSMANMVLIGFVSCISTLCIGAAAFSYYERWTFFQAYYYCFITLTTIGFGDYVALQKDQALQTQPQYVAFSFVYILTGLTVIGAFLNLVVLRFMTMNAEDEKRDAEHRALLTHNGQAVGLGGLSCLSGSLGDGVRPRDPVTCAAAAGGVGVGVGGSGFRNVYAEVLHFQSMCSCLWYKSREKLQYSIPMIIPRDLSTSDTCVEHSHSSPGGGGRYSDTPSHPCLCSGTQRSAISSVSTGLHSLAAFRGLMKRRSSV

**Q.** With “TASK1 (TWIK-related acid-sensitive K+ subunit 1) (from UniProt O35111 1-409)” as the substance, how does the binding read?
**A.** Its binding is “binds”.

Reference: article PMC6706379
